# Data as given in PubChem BioAssay AID1224830 (NIAID, 2016).
# Test: 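Genes whose knock-down alters the TNF-alpha reporter response to LPS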 (primary screen)
# Cells: human THP-1 monocytic leukaemia cells, TNF dual-luciferase reporter clone, PMA-differentiated to macrophage-like cells
# Knock-down reagent: siRNA pool against human genes, 50 nM
# Timing: LPS for 4 h, given about 3 days after siRNA transfection
# Challenge: bacterial LPS (TLR4 ligand), 10 ng/ml
# Detection: 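TNF firefly reporter luminescence divided by renilla, normalised to the plate median, then turned into a robust z-score for each replicate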
# Direction: TNF reporter robust z-score: higher = stronger TNF reporter response to LPS
# Call rule: 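a well is active when its z-score exceeds 2.8 or falls below -1.5; control wells carry no call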
# In all, the deposit lists about 18,000 reagents; below is a part drawn at random. About 2,900 of them (16%) count as active. 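Calls are made per well; low scores hint the gene aids the LPS response, high scores that it dampens it.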 Repeated entries: four replicate wells of each siRNA pool. No sequences are given here.
target gene,TNF reporter robust z-score,outcome
LILRA4 (GeneID 23547),-0.46,inactive
LILRA4 (GeneID 23547),-0.5,inactive
LILRA4 (GeneID 23547),-1.05,inactive
LILRA4 (GeneID 23547),0.77,inactive
GIGYF2 (GeneID 26058),0.04,inactive
GIGYF2 (GeneID 26058),1.62,inactive
GIGYF2 (GeneID 26058),0.96,inactive
GIGYF2 (GeneID 26058),-0.34,inactive
PRKAA1 (GeneID 5562),1.07,inactive
PRKAA1 (GeneID 5562),2.01,inactive
PRKAA1 (GeneID 5562),2.23,inactive
PRKAA1 (GeneID 5562),1.82,inactive
CDC7 (GeneID 8317),0.54,inactive
CDC7 (GeneID 8317),0.15,inactive
CDC7 (GeneID 8317),-0.15,inactive
C7orf25 (GeneID 79020),-0.59,inactive
C7orf25 (GeneID 79020),-0.52,inactive
C7orf25 (GeneID 79020),0.55,inactive
C7orf25 (GeneID 79020),-0.28,inactive
METTL27 (GeneID 155368),0.91,inactive
METTL27 (GeneID 155368),1.03,inactive
METTL27 (GeneID 155368),0.76,inactive
METTL27 (GeneID 155368),1.34,inactive
TMEM200A (GeneID 114801),-1.13,inactive
TMEM200A (GeneID 114801),-0.48,inactive
TMEM200A (GeneID 114801),-0.56,inactive
TMEM200A (GeneID 114801),0.16,inactive
SMAP1 (GeneID 60682),2.48,inactive
SMAP1 (GeneID 60682),-0.17,inactive
SMAP1 (GeneID 60682),-0.21,inactive
SMAP1 (GeneID 60682),0.11,inactive
PYROXD1 (GeneID 79912),-1.04,inactive
PYROXD1 (GeneID 79912),-0.96,inactive
PYROXD1 (GeneID 79912),-0.67,inactive
PYROXD1 (GeneID 79912),0.02,inactive
CD53 (GeneID 963),0.2,inactive
CD53 (GeneID 963),0.72,inactive
CD53 (GeneID 963),0.24,inactive
CD53 (GeneID 963),-0.1,inactive
SELENBP1 (GeneID 8991),0.28,inactive
SELENBP1 (GeneID 8991),0.74,inactive
SELENBP1 (GeneID 8991),0.73,inactive
SELENBP1 (GeneID 8991),0.87,inactive
RENBP (GeneID 5973),-0.55,inactive
RENBP (GeneID 5973),0.43,inactive
RENBP (GeneID 5973),-0.49,inactive
RENBP (GeneID 5973),-0.56,inactive
CAB39 (GeneID 51719),0.53,inactive
CAB39 (GeneID 51719),-0.64,inactive
CAB39 (GeneID 51719),-0.13,inactive
CAB39 (GeneID 51719),-0.59,inactive
PAPSS1 (GeneID 9061),0.44,inactive
PAPSS1 (GeneID 9061),0.08,inactive
PAPSS1 (GeneID 9061),0.11,inactive
PAPSS1 (GeneID 9061),1.2,inactive
MGRN1 (GeneID 23295),-0.77,inactive
MGRN1 (GeneID 23295),0.04,inactive
MGRN1 (GeneID 23295),-0.46,inactive
MGRN1 (GeneID 23295),-0.38,inactive
MAP1S (GeneID 55201),-0.15,inactive
MAP1S (GeneID 55201),0.22,inactive
MAP1S (GeneID 55201),-0.35,inactive
MAP1S (GeneID 55201),1.42,inactive
ENO3 (GeneID 2027),0.28,inactive
ENO3 (GeneID 2027),0.49,inactive
ENO3 (GeneID 2027),-0.06,inactive
ARL9 (GeneID 132946),0.11,inactive
ARL9 (GeneID 132946),0.5,inactive
ARL9 (GeneID 132946),0.41,inactive
ARL9 (GeneID 132946),-0.29,inactive
C3orf70 (GeneID 285382),-1.12,inactive
C3orf70 (GeneID 285382),0.09,inactive
C3orf70 (GeneID 285382),0.59,inactive
C3orf70 (GeneID 285382),1.05,inactive
BCL11A (GeneID 53335),-1.1,inactive
BCL11A (GeneID 53335),-0.86,inactive
BCL11A (GeneID 53335),-1.18,inactive
BCL11A (GeneID 53335),-0.96,inactive
MCHR2 (GeneID 84539),-0.15,inactive
MCHR2 (GeneID 84539),1.53,inactive
MCHR2 (GeneID 84539),-0.65,inactive
MCHR2 (GeneID 84539),-0.95,inactive
ALKBH2 (GeneID 121642),0.27,inactive
ALKBH2 (GeneID 121642),0.49,inactive
ALKBH2 (GeneID 121642),1.17,inactive
ALKBH2 (GeneID 121642),0.2,inactive
ASB16 (GeneID 92591),-0.6,inactive
ASB16 (GeneID 92591),0.27,inactive
ASB16 (GeneID 92591),-0.03,inactive
ASB16 (GeneID 92591),2.44,inactive
ARSD (GeneID 414),0.04,inactive
ARSD (GeneID 414),1.14,inactive
ARSD (GeneID 414),0.73,inactive
ARSD (GeneID 414),1.18,inactive
SLC34A3 (GeneID 142680),-1.13,inactive
SLC34A3 (GeneID 142680),0.8,inactive
SLC34A3 (GeneID 142680),-0.82,inactive
SLC34A3 (GeneID 142680),0.63,inactive
PSME2 (GeneID 5721),-0.64,inactive
PSME2 (GeneID 5721),1.25,inactive
PSME2 (GeneID 5721),0.88,inactive
PSME2 (GeneID 5721),0.03,inactive
PRKRA (GeneID 8575),-0.11,inactive
PRKRA (GeneID 8575),-0.51,inactive
PRKRA (GeneID 8575),0,inactive
PRKRA (GeneID 8575),-0.75,inactive
CLPS (GeneID 1208),0.28,inactive
CLPS (GeneID 1208),-0.61,inactive
CLPS (GeneID 1208),-1.58,active
CLPS (GeneID 1208),-1.72,active

Records listed so far called active (2):
target gene,TNF reporter robust z-score,outcome
CLPS (GeneID 1208),-1.58,active
CLPS (GeneID 1208),-1.72,active
